Measurements published in article PMC5758517.
These are yes or no findings as the source states them, for the method shown. In cells and extracts the contact can be indirect. Some binding calls cover weakened binding; strength is not graded here.

The chains behind the UniProt entries cited, without tags or fusion partners.
UniProt O60260: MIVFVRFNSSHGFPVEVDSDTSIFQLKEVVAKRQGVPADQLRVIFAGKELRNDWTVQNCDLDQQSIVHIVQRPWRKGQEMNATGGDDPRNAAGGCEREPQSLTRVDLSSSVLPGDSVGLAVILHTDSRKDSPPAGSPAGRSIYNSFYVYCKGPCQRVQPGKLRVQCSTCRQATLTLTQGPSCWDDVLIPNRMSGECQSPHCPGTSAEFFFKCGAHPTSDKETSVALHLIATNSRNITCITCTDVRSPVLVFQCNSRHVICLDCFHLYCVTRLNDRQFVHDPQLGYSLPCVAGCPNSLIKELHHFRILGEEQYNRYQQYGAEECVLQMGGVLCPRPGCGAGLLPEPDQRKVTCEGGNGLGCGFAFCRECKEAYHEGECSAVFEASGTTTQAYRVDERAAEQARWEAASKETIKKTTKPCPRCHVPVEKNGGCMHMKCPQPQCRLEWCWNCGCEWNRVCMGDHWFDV
UniProt O08835: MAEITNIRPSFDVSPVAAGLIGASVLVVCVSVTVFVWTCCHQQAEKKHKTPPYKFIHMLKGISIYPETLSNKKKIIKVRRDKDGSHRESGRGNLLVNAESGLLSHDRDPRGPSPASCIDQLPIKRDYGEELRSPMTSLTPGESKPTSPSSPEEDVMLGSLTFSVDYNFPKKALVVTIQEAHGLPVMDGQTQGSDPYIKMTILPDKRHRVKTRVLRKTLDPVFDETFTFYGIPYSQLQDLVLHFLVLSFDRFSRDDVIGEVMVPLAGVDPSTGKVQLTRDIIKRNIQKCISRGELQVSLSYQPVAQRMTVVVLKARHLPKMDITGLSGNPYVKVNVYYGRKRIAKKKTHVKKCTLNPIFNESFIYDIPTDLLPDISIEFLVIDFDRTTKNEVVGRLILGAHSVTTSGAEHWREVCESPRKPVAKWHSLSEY

Target: YFP-parkin (UniProt O60260)
Assay: co-IP; YFP-parkin (or GFP) and Myc-Syt11 co-expressed in HEK293A cells; 10 uM MG132 for 12 h before lysis; lysate buffer 20 mM HEPES pH 7.4, 100 mM KCl, 2 mM EDTA, 1% NP40; IP with anti-GFP or anti-Myc and Protein G/A beads for 4 h at 4 °C; immunoblot

**Q.** With “Myc-Syt11 (full-length rat synaptotagmin-11) (from UniProt O08835 1-430)” as the substance, how does the binding read?
**A.** binds
